Laboratory results published in PubChem BioAssay AID1439 (NMMLSC, 2008).
About 770 (0.35%) of roughly 220,000 compounds were called active. Inconclusive results, whose numbers are uncertain, are shown with a selection of clear calls. Rule as the data show it: active = binding response below about 49% or above about 150%; inconclusive = no clear call, values can overlap the other calls; inactive = in between.

The chains behind the UniProt entries cited, without tags or fusion partners.
UniProt P09471, whole entry, looked up: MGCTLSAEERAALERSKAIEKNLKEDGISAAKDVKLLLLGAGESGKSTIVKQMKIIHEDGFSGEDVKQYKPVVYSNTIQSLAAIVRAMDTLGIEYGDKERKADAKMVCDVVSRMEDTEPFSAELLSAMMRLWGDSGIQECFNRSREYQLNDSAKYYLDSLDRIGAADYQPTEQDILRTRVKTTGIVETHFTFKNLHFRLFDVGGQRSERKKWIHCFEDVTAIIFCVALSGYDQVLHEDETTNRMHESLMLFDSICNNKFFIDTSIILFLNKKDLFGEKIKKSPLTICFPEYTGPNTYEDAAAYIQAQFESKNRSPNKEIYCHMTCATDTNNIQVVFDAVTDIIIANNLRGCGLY

Biological target: Guanine nucleotide-binding protein G(o) subunit alpha (Homo sapiens) (UniProt P09471)
Assay: RGS7-Galphao binding modulators, primary screen, biochemical, multiplexed bead flow cytometry (AID 1439);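 also: fluorescent Galphao held in activated GDP-AlF4 state binding bead-coupled RGS7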
Conditions: at 10 µM, actives lie on both sides

Compound	binding response (% of control)
O=P(CCO)(c1ccccc1)c1ccccc1	active: 166% [activator]
CCC1=C(OC(=O)N(CC)CC)N2C(=O)OC(=NCC(=O)OC)[C@]2(C)[C@H]2C1=CC[C@H]1C(=O)NC(=O)[C@H]12	inconclusive: 100%
NNC(=O)c1cccc(Cn2cc(Br)c([N+](=O)[O-])n2)c1	inconclusive: 112%
O=C(O)CCN1C(=O)C2C3c4ccccc4C(c4ccccc43)[C@@H]2C1=O (stereo not given in full)	inconclusive: 100%
CCOC(=O)c1c(-c2ccc(OC)cc2)cn2ccccc12	inactive: 101%
CN(C)S(=O)(=O)c1ccc2c(c1)nc(CCC(=O)Nc1ccc(N3CCOCC3)cc1)n2C	inconclusive: 129%
N=c1c2ccccc2nnn1-c1cccc(C(F)(F)F)c1	inactive: 101%
CCOc1ccc(S(=O)(=O)NCCC(=O)OCC(=O)Nc2cc(C)on2)cc1	inconclusive: 97.9%
CCCc1cc(=O)oc2c3c(c4c(c12)OC(C)(C)C=C4)OC(C)C(C)C3O (stereo not given)	inconclusive: 563%
O=C(CSc1nncn1-c1ccccc1)Nc1ccc(N2CCOCC2)cc1	inactive: 104%
CN(C(=O)c1ccc(-c2nn(C)c(=O)c3ccccc23)cc1)c1ccccc1	inactive: 99.1%
O=C(N/N=C/c1ccco1)C(O)c1ccccc1 (stereo not given)	inconclusive: 112%
CC1(C)CC(C(N)=S)CCO1 (stereo not given)	inconclusive: 110%
COc1cc(NC(=O)CS(=O)(=O)c2ccc(C)cc2)cc(OC)c1OC	inactive: 101%
CCn1c(=O)[nH]c(=O)c2c(N)c(C(=O)c3cc(F)ccc3F)sc21	inconclusive: 78.5%
Cc1ccc(NC(=O)CCC(=O)NNC(=O)c2ccccc2Cl)c(C)c1	inconclusive: 106%
Cn1cc(/C=C2\SC(=S)N(N3CCOCC3)C2=O)c2ccccc21	inconclusive: 51%
CCCCNC(=O)c1cn(CC)c2cc(N3CCN(C)CC3)c(F)cc2c1=O	inconclusive: 123%
CCNC(=O)NC(=O)C(C)OC(=O)CNS(=O)(=O)c1c(Cl)cc(Br)cc1Cl (stereo not given)	inactive: 100%
O=C(CSc1nnc(CNC(=O)c2cccs2)o1)NCC1CCCO1 (stereo not given)	inconclusive: 115%
O=C(CN1CCN(Cc2ccccc2)CC1)N/N=C/c1ccccc1F	inconclusive: 127%
Cc1ccc(CNC(=O)CCC(=O)Nc2nnc(C3CCCCC3)s2)cc1	inconclusive: 87%
CN(C)CCCNC(=O)c1ccccc1Oc1ccccc1	inconclusive: 75.1%

Sorted by molecular weight (low to high): 18 of the compounds above
Compound	binding response (% of control)
CC1(C)CC(C(N)=S)CCO1 (stereo not given)	inconclusive: 110%
O=P(CCO)(c1ccccc1)c1ccccc1	active: 166% [activator]
N=c1c2ccccc2nnn1-c1cccc(C(F)(F)F)c1	inactive: 101%
CCOC(=O)c1c(-c2ccc(OC)cc2)cn2ccccc12	inactive: 101%
CN(C)CCCNC(=O)c1ccccc1Oc1ccccc1	inconclusive: 75.1%
O=C(O)CCN1C(=O)C2C3c4ccccc4C(c4ccccc43)[C@@H]2C1=O (stereo not given in full)	inconclusive: 100%
CCn1c(=O)[nH]c(=O)c2c(N)c(C(=O)c3cc(F)ccc3F)sc21	inconclusive: 78.5%
O=C(CN1CCN(Cc2ccccc2)CC1)N/N=C/c1ccccc1F	inconclusive: 127%
Cn1cc(/C=C2\SC(=S)N(N3CCOCC3)C2=O)c2ccccc21	inconclusive: 51%
CN(C(=O)c1ccc(-c2nn(C)c(=O)c3ccccc23)cc1)c1ccccc1	inactive: 99.1%
CCCc1cc(=O)oc2c3c(c4c(c12)OC(C)(C)C=C4)OC(C)C(C)C3O (stereo not given)	inconclusive: 563%
Cc1ccc(NC(=O)CCC(=O)NNC(=O)c2ccccc2Cl)c(C)c1	inconclusive: 106%
O=C(CSc1nnc(CNC(=O)c2cccs2)o1)NCC1CCCO1 (stereo not given)	inconclusive: 115%
Cc1ccc(CNC(=O)CCC(=O)Nc2nnc(C3CCCCC3)s2)cc1	inconclusive: 87%
O=C(CSc1nncn1-c1ccccc1)Nc1ccc(N2CCOCC2)cc1	inactive: 104%
CN(C)S(=O)(=O)c1ccc2c(c1)nc(CCC(=O)Nc1ccc(N3CCOCC3)cc1)n2C	inconclusive: 129%
CCC1=C(OC(=O)N(CC)CC)N2C(=O)OC(=NCC(=O)OC)[C@]2(C)[C@H]2C1=CC[C@H]1C(=O)NC(=O)[C@H]12	inconclusive: 100%
CCNC(=O)NC(=O)C(C)OC(=O)CNS(=O)(=O)c1c(Cl)cc(Br)cc1Cl (stereo not given)	inactive: 100%

Additional entries:

Compound	binding response (% of control)
CS(=O)(=O)N1N=C(c2cccs2)CC1c1ccco1 (stereo not given)	inactive: 102%
COC(=O)c1c(C)[nH]c(O)c1C=Nc1ccc(Oc2ccccc2)cc1	inconclusive: 114%
Cc1ccc(C)c(OCCn2c(=O)c3c(ncn3C3CCCC3)n(Cc3ccccc3)c2=O)c1	inactive: 103%
CC1(C)CC(NCc2ccncc2)CC(C)(C)N1	inconclusive: 106%
CCC(C)(C)c1ccc(OCCCC[n+]2cccc(C)c2)c(C(C)(C)CC)c1	inactive: 99.5%
COc1cccc(N2CCN(c3cnc4ccccc4n3)CC2)c1	inconclusive: 102%
COc1ccc(C(=O)CSc2nc(C)cc(C)n2)cc1[N+](=O)[O-]	inactive: 103%
O=C(CCSCc1cccc(Cl)c1)NC1CCCC1	inactive: 100%
CCC(CC)C(=O)N1N=C(c2ccc(NS(C)(=O)=O)cc2)CC1c1ccc(C)cc1 (stereo not given)	inconclusive: 123%
CCOC(=O)c1c(NC(=O)C(C)N2CCN(S(=O)(=O)c3cccs3)CC2)sc2c1CCC(C)C2 (stereo not given)	inactive: 103%
CCCn1nnc(NC(=S)NC(=O)c2ccc(-c3ccc(Br)cc3)o2)n1	inconclusive: -82.7%
CCCCNC(=O)c1onc(CSc2ccc(F)cc2)c1C(=O)NCCCC	inconclusive: 125%
COCCOC(=O)c1c(N)n(CCCN2CCOCC2)c2nc3ccccc3nc12	inconclusive: 64.4%
NS(=O)(=O)c1ccc(CCNC(=O)CSc2nc3ccccc3c(=O)n2CCC(=O)N2CCCCC2)cc1	inactive: 106%
Cc1cccc(C(C(N)=O)c2ncc(C(F)(F)F)cc2Cl)c1 (stereo not given)	inactive: 104%
COc1cc(C2CC(=O)Nc3n[nH]c(-c4ccccc4)c32)cc(OC)c1OC (stereo not given)	inconclusive: 53.7%
CCn1nc(C)c(Br)c1-c1nc(-c2cccc(C)c2)no1	inconclusive: 151%
O=S(=O)(c1ccc(Cl)cc1)c1nc(-c2ccco2)oc1N1CCOCC1	inconclusive: 92.4%
Cc1ccccc1Nc1nc(N)c2ccccc2n1	inconclusive: 88.3%
O=C(C1CCC(C(=O)N2CCCCC2)CC1)N1CCCCC1 (stereo not given)	inactive: 101%
COc1cccc(/C=N/n2nnnc2N)c1O	inconclusive: 96.1%
CCNC(=O)COc1ncnc2scc(-c3ccc(F)cc3)c12	inactive: 101%
CCCCCC(=O)Nc1cccc(C2=NOC3(C2)C[C@@H](C(N)=O)N(C(=O)C2(C)CC2)C3)c1 (stereo not given in full)	inconclusive: 122%

Compound	binding response (% of control)
O=C(O)c1cccc(NC2=C(n3nnc4ccccc43)C(=O)c3ccccc3C2=O)c1	inconclusive: 46.7%
NC(=O)C1CCN(C(=S)NC2CC3C=CC2C3)CC1 (stereo not given)	inconclusive: 76.3%
NNC(=O)c1n[nH]c(=O)c2ccccc12	inconclusive: 107%
CCN(CC)S(=O)(=O)c1cc(OC)c(C)cc1C	inconclusive: 90.4%
O=c1c2[nH]c3ccc(F)cc3c2nc2n1CCS2	inconclusive: 107%
COC(=O)CCc1c(C)c(C(=O)c2cc(F)c(F)c(F)c2F)c2ccccn12	inconclusive: 108%
C=C1c2cccc(O)c2C(O)=C2C(=O)[C@]3(O)C(O)=C(C(N)=O)C(=O)[C@@H](N(C)C)[C@@H]3[C@@H](O)[C@H]12	inactive: 105%
Cc1ccccc1NC(=S)NCCO	inconclusive: 100%
CCOc1ccc(NC(=S)NC2CC3CCC(C2)N3Cc2ccco2)cc1 (stereo not given)	inconclusive: 105%
O=C(N/N=C/C(Br)=C\c1ccccc1)c1ccc2nc[nH]c2c1	inactive: 96.1%
COC(C[C@@H]1O[C@@H]1[C@@H](O)[C@H](C)OCc1ccccc1)OC	inconclusive: 85%
CCOc1ccc2[nH]c3c(N4CCN(C(=O)c5ccco5)CC4)ncnc3c2c1	inconclusive: 126%
COc1cc(/C=C2\SC(=S)N(c3cccnc3)C2=O)ccc1O	inconclusive: 68.3%
CCOC(=O)c1c(CSc2ccccc2)n(C)c2ccc(O)c(CN3CCOCC3)c12	inconclusive: 80.6%
O=C(OCc1ccccc1)C1=NNC2C(=O)N(c3ccc(Br)cc3)C(=O)C12 (stereo not given)	inconclusive: 106%
COc1cccc(NC(=O)Cn2c(=O)oc3cc(S(=O)(=O)N4CCCC4)ccc32)c1	inconclusive: 100%
CCCOCC(O)CC(Cc1ccccc1)C(=O)NN (stereo not given)	inconclusive: 85%
Cc1ccc(NCCC#N)cc1C	inactive: 103%
CC(C)N1C(=O)CCC1C(=O)N1CCN(c2ccc(F)cc2)CC1 (stereo not given)	inconclusive: 103%
CC(C)=C(NC(=O)c1ccccc1)C(N)=O	inconclusive: 104%
CC(=O)Nc1cccc(OCCCOc2ccc([N+](=O)[O-])cc2)c1	inconclusive: 84.1%
CC1CCc2c(sc(/N=C/c3ccco3)c2C(N)=O)C1 (stereo not given)	inconclusive: 195%
Clc1cccc(Cl)c1-c1noc(-c2ccno2)n1	inconclusive: 108%

Compound	binding response (% of control)
Cc1cc(OCC(O)CN2C(C)CCCC2C)ccc1C(C)C (stereo not given)	inconclusive: 93.1%
O=C(N/N=C/c1ccc([N+](=O)[O-])cc1)c1ccc(COc2ccccc2-c2ccccc2)cc1	inactive: 102%
COc1ccc(NC2=CC(=O)CC(c3ccccc3)C2)cc1 (stereo not given)	inactive: 112%
O=C(Cn1c2c(c(-c3ccccc3Cl)cc1=O)CCC2)NCC1CCCO1 (stereo not given)	inconclusive: 96.3%
CCOC(=O)C1CCN(C(=O)Nc2cccc(OC)c2)CC1	inconclusive: 90.7%
O=C(CCCN1C(=O)/C(=C\c2ccccc2)SC1=S)Nc1ccccc1O	inconclusive: 121%
COc1ccc(N(C)S(=O)(=O)c2cccc(C(=O)OCC(=O)NCc3ccccc3OC)c2)cc1	inconclusive: 84.2%
CN(C)N=Nc1nc2c(c(=O)n(C)c(=O)n2C)n1C	inconclusive: -2.83%
C/C(=N\Nc1ccc2nncn2n1)c1ccco1	inconclusive: 107%
O=[N+]([O-])c1ccc(Sc2cccc[n+]2[O-])c2nonc12	inconclusive: 143%
N#Cc1cccc(NC(=O)CN2C(=O)NC(Cc3ccccc3)C2=O)c1 (stereo not given)	inconclusive: -357%
CCOC(=O)c1cc(/C(C)=N/OC(=O)c2ccc(C(C)(C)C)cc2)on1	inconclusive: -421%
COCCCNC(=S)NNC(=O)c1csc(C)n1	inconclusive: 97.8%
Cc1onc(-c2ccccc2)c1C(=O)N/N=C/c1ccco1	inconclusive: 115%
C/C=C/C=C\C(=O)Nc1cccc(C2=NOC3(C2)C[C@H](C(N)=O)N(C(=O)/C=C/C)C3)c1 (stereo not given in full)	inconclusive: 79.9%
CCOC(=O)C(=CNc1ccc(N2CCOCC2)cc1)C(=O)OCC	inconclusive: 107%
COc1cc(/C=N/n2c(-c3cc(C)[nH]n3)n[nH]c2=S)cc(OC)c1OC	inconclusive: -8.68%
CC/C(C)=N/NC(=O)c1[nH]c2ccc(C)cc2c1-c1ccccc1	inconclusive: 80%
Oc1ccccc1/C=N/NC(=S)NC1CC2CC1C1C=CCC21 (stereo not given)	inconclusive: 126%
O=C(Nc1nc(-c2ccccc2)nc2ccccc12)c1ccc(F)cc1	inconclusive: 226%
COC(=O)CNC(=O)CSc1nnc2cc(C)c3ccccc3n12	inconclusive: 102%
